Results taken from patent US20100035311A1, “METHOD AND COMPOSITION FOR ENZYME STORAGE” (priority 2006, published 2010).
At least one read-out could not be matched to a standard name with certainty.

Biological target: T1, CYP74A1 (Arabidopsis thaliana, UniProt Q96242)
T1 sequence (Q96242 with tags, fused parts or gaps): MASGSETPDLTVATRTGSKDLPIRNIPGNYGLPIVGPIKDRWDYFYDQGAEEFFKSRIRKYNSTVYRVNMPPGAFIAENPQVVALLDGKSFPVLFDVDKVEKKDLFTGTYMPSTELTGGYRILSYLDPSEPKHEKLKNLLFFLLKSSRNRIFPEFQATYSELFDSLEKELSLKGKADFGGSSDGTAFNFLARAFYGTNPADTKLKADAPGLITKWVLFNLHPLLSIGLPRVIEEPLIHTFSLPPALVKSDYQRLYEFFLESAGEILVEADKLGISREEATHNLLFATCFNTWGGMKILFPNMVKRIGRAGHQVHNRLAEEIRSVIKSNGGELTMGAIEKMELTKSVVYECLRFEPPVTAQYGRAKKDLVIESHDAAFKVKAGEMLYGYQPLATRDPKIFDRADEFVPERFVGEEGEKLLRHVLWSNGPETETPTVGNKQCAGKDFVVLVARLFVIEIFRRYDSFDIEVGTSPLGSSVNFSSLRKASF
Settings: with detergent micelles

B1: CYP74A1: recombinant allene oxide synthase (AOS) from Arabidopsis thaliana (protein, UniProt Q96242 34-518, looked up)
Allene oxide synthase, …: SGSETPDLTVATRTGSKDLPIRNIPGNYGLPIVGPIKDRWDYFYDQGAEEFFKSRIRKYNSTVYRVNMPPGAFIAENPQVVALLDGKSFPVLFDVDKVEKKDLFTGTYMPSTELTGGYRILSYLDPSEPKHEKLKNLLFFLLKSSRNRIFPEFQATYSELFDSLEKELSLKGKADFGGSSDGTAFNFLARAFYGTNPADTKLKADAPGLITKWVLFNLHPLLSIGLPRVIEEPLIHTFSLPPALVKSDYQRLYEFFLESAGEILVEADKLGISREEATHNLLFATCFNTWGGMKILFPNMVKRIGRAGHQVHNRLAEEIRSVIKSNGGELTMGAIEKMELTKSVVYECLRFEPPVTAQYGRAKKDLVIESHDAAFKVKAGEMLYGYQPLATRDPKIFDRADEFVPERFVGEEGEKLLRHVLWSNGPETETPTVGNKQCAGKDFVVLVARLFVIEIFRRYDSFDIEVGTSPLGSSVNFSSLRKASF
  kcat/Km: 5.9e+07 M⁻¹ s⁻¹
